Reference: PMC5738357
Results are given in words; binding and its absence hold for the method and conditions named. In cells and extracts the contact can be indirect. A yes stands for co-enrichment or nearness to the bait. Other partners may have been found.

Sequences of proteins named here, by UniProt entry; tags and fusion partners are left off. A change or cut given only in a name is not applied to a line headed by its entry.
UniProt P42945: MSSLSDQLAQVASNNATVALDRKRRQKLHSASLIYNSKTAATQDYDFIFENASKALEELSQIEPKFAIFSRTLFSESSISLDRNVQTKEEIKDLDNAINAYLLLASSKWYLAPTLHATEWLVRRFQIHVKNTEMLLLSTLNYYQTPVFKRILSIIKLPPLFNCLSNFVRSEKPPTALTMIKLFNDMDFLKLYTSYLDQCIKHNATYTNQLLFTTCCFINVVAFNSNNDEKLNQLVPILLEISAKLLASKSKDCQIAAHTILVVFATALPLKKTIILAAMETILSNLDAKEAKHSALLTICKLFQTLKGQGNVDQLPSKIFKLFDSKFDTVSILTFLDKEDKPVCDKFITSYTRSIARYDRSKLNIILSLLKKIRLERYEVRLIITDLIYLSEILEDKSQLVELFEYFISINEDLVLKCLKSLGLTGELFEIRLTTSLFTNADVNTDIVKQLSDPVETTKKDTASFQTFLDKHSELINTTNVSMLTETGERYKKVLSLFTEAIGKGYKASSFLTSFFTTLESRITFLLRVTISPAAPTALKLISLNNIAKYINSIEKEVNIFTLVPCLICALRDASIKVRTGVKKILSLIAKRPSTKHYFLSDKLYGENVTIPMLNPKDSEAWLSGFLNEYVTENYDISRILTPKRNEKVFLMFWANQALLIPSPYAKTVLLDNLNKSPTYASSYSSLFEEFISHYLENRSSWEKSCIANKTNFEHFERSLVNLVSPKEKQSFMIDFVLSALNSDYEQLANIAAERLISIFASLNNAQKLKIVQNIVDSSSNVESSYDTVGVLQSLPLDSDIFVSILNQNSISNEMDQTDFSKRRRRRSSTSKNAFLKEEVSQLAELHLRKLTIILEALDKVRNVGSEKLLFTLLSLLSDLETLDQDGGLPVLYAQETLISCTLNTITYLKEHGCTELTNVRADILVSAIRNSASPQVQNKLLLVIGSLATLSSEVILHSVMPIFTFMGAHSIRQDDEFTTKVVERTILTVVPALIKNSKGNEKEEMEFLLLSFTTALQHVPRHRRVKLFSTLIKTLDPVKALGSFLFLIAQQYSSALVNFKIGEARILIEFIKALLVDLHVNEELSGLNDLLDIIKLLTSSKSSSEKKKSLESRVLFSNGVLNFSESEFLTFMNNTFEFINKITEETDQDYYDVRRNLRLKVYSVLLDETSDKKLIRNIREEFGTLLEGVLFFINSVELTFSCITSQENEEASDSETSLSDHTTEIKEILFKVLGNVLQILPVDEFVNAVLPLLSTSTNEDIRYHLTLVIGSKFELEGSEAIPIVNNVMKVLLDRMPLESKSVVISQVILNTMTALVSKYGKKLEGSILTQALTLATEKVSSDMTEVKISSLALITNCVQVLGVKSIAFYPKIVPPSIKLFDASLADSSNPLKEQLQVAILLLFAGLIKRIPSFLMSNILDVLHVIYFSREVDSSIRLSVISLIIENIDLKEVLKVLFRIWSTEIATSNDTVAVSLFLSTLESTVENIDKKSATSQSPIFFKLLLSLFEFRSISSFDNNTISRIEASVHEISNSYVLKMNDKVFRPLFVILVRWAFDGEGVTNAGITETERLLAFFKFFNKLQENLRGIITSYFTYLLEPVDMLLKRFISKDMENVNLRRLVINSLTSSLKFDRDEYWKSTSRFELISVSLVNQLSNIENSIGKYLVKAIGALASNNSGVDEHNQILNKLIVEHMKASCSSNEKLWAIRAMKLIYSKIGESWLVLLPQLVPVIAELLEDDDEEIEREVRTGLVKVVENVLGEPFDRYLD
UniProt P25586: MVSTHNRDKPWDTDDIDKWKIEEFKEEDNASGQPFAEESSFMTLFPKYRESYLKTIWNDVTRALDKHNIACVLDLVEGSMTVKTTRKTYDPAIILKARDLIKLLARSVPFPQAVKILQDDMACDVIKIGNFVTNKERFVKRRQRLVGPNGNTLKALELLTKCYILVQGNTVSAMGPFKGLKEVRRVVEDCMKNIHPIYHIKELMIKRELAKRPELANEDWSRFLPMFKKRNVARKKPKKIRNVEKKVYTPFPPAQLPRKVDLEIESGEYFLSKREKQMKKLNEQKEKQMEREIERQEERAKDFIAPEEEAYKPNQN
UniProt P33442: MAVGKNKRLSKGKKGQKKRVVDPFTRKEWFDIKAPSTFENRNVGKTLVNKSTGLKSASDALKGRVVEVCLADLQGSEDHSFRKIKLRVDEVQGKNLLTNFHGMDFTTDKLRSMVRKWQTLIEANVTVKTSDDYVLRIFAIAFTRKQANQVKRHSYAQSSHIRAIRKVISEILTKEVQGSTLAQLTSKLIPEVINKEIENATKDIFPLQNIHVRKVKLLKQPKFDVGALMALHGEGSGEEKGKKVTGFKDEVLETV
UniProt Q05022: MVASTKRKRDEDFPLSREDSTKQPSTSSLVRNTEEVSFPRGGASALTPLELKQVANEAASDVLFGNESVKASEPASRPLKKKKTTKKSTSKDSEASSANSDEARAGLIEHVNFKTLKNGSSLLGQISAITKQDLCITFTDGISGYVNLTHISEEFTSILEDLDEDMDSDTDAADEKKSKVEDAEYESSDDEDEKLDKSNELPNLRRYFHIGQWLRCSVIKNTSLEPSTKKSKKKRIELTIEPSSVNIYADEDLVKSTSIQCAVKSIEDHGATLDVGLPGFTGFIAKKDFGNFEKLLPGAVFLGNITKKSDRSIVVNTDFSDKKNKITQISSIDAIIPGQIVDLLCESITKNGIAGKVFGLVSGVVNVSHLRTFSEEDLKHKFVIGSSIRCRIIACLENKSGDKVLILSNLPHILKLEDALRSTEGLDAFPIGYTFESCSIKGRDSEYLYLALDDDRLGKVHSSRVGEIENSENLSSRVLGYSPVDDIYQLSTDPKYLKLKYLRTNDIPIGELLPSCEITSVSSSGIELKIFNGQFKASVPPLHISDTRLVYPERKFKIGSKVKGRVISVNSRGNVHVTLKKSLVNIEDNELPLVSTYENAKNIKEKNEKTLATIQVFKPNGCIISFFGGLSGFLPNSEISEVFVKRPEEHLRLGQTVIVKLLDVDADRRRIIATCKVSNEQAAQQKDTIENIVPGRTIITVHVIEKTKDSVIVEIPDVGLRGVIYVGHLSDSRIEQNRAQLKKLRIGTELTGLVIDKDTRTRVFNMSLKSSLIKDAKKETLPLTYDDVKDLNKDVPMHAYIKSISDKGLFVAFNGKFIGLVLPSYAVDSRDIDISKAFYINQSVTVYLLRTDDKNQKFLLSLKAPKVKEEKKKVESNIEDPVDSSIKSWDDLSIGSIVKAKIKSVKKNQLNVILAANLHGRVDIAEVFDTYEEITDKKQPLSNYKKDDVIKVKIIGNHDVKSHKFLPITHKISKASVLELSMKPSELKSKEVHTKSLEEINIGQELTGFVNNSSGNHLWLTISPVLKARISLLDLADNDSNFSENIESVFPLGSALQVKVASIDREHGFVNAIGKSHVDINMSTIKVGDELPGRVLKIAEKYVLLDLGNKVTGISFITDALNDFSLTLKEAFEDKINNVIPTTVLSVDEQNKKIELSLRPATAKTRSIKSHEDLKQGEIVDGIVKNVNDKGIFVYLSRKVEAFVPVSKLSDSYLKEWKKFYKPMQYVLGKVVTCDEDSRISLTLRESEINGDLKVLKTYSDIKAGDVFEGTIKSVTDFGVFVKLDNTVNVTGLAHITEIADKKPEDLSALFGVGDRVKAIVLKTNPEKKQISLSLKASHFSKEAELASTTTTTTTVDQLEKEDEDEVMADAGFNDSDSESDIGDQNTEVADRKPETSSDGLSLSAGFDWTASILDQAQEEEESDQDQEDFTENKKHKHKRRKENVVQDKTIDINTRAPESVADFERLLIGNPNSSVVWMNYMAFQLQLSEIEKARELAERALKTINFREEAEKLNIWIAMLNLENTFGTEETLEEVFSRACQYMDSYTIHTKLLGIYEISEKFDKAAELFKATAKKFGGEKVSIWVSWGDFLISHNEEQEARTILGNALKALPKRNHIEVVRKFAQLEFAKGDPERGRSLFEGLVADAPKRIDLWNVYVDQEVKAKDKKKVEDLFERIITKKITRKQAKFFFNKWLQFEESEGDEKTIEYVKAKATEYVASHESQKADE

T1: scUtp1-FTpA (S. cerevisiae) (UniProt P25635)
T1 sequence: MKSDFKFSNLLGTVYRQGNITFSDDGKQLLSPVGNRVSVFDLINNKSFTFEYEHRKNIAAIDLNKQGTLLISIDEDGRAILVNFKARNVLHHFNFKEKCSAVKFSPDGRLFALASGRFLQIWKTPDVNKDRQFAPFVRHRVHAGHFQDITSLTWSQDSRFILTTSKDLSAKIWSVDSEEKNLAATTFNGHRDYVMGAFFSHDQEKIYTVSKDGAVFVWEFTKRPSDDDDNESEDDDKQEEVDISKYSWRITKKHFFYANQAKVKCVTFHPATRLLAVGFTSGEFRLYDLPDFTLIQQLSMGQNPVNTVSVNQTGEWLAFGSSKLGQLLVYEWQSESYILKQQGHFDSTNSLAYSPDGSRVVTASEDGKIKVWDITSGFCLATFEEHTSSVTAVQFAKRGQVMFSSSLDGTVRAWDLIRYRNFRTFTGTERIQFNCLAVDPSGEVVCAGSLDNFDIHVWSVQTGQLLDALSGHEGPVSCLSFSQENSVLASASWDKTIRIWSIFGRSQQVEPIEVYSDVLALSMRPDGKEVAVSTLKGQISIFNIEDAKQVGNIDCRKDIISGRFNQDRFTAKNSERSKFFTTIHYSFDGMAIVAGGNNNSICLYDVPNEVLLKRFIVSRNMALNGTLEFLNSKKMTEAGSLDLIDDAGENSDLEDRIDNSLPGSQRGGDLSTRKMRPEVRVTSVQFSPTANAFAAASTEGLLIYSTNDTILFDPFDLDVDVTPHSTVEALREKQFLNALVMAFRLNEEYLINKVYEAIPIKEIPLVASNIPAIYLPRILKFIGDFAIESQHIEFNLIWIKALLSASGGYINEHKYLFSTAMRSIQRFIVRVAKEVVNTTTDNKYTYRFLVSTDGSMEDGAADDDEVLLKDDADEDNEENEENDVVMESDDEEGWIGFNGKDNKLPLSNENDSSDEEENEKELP


Columns and labels:
[1] = biological target: scUtp10-FTpA (S. cerevisiae) (UniProt P42945); experiment: affinity purification with mass spectrometry; tandem affinity-purification of FTpA-tagged yeast baits (IgG Sepharose, TEV, Flag agarose); SDS-PAGE, Coomassie, bands identified by mass spectrometry; cells expressing or depleted of Dim2 (GAL::scDIM2, glucose 8 h) or with or without Krr1 degradation (auxin 90 min)
[2] = biological target: T1, scUtp1-FTpA (S. cerevisiae); experiment: as above
[3] = biological target: scUtp10-FTpA (S. cerevisiae) (UniProt P42945); experiment: affinity purification with mass spectrometry; semi-quantitative mass spectrometry (1D nLC-ESI-MS-MS, MaxQuant iBAQ normalised to the bait) of FTpA eluates from depleted and non-depleted cells
[4] = biological target: scKrr1-FTpA (S. cerevisiae) (UniProt P25586); experiment: as above

Row | Molecule | binding [1] | binding [2] | binding [3] | also measured
1 | Rps1 (endogenous, yeast) (from UniProt P33442) | binds | binds | – | –
2 | Mrd1 (protein, UniProt Q06106 1-887) MSRIIVKGLPVYLTDDNLREHFTKRLRQKHSHQAVNGSGPDLITDVKILRDRNGESRRFGFIGYRNEEDAFDAVEYFNGSFINTSKIEVSMAKSFADPRVPQPMKEKRREALKRFREKEEKLLQEENRKKKKVDENKHSNIDDEIRKNKQLQEFMETMKPSSQVTSWEKVGIDKSIEDEKLKREEEDSSVQGNSLLAHALALKEENNKDEAPNLVIENESDDEYSALNRNRDEDQEDAGEEEKMISISNLKDTDIGLVNDDANSDEKENEKRRNLAQDEKVSDLDWFKQRRVRIKESEAETREKSSSYATEQNESLDTKKEEQPERAVPQKTDEELAIEKINQTGRLFLRNILYTSKEEDFRKLFSPFGELEEVHVALDTRTGQSKGFAYVLFKDSKNAVNAYVELDKQIFQGRLLHILPGEEKKSHRLDEFDLKNMPLKKQKELKRKAAASRQTFSWNSLYMNQDAVLGSVAAKLGLEKSQLIDAENSSSAVKQALAEAHVIGDVRKYFESKGVDLTKFSQLKSTNQRDDKVILVKNFPFGTTREELGEMFLPYGKLERLLMPPAGTIAIVQFRDTTSARAAFTKLSYKRFKDGIIYLERGPKDCFTKPAEADDLINNTSAKEEENPVEVKPSSNDLMEANKDVTEGSSNAHDEDVIDGPTVSIFIKNLNFSTTNQNLTDRFKVFTGFVVAQVKTKPDPKHQGKTLSMGFGFVEFRTKEQANAVIAAMDGTVIDGHKIQLKLSHRQASQSGNTKTKSNKKSGKIIVKNLPFEATRKDVFELFNSFGQLKSVRVPKKFDKSARGFAFVEFLLPKEAENAMDQLHGVHLLGRRLVMQYAEEDAVDAEEEIARMTKKVRKQVATNEMAALRNGGGRKKLDVDDEENEGF | – | – | – | binding [4]: binds
3 | Rok1 (protein, UniProt P45818 1-564) MDIFRVLTRGASVKKESGPKAKAADYSVINGNDENHKEDNNESQIVKELDFFRNKRIISKVEDDREKTTENDSPNKEEKSGNDDGLIKPVITNTVEASALRKSYKGNVSGIDIPLPIGSFEDLISRFSFDKRLLNNLIENGFTEPTPIQCECIPVALNNRDVLACGPTGSGKTLAFLIPLVQQIIDDKQTAGLKGLIISPTKELANQIFIECFKLSYKIFLEKKRPLQVALLSKSLGAKLKNKVVSDKKYDIIISTPLRLIDVVKNEALDLSKVKHLIFDEADKLFDKTFVEQSDDILSACREPSLRKAMFSATIPSNVEEIAQSIMMDPVRVIIGHKEAANTNIEQKLIFCGNEEGKLIAIRQLVQEGEFKPPIIIFLESITRAKALYHELMYDRINVDVIHAERTALQRDRIIERFKTGELWCLICTDVLARGIDFKGVNLVINYDVPGSSQAYVHRIGRTGRGGRSGKAITFYTKQDSVAIKPIINVMKQSGCEVSEWMDKMAKMTRKEKESIKNGKAHKERKQITTVPKMDKAKRRRQQEMIAASKRRKNEELSKKHFSK | – | – | binds | –

Further lines, with some results ahead:

Row | binding [1] | binding [2] | binding [3] | Molecule | also measured
4 | binds | – | – | Rrp5 (from UniProt Q05022 1-1729) | –
5 | – | – | binds | Rrp7 (endogenous, yeast) (protein, UniProt P25368 1-297) MGIEDISAMKNGFIVVPFKLPDHKALPKSQEASLHFMFAKRHQSSNSNESDCLFLVNLPLLSNIEHMKKFVGQLCGKYDTVSHVEELLYNDEFGLHEVDLSALTSDLMSSTDVNEKRYTPRNTALLKFVDAASINNCWNALKKYSNLHAKHPNELFEWTYTTPSFTTFVNFYKPLDIDYLKEDIHTHMAIFEQREAQAQEDVQSSIVDEDGFTLVVGKNTKSLNSIRKKILNKNPLSKHENKAKPISNIDKKAKKDFYRFQVRERKKQEINQLLSKFKEDQERIKVMKAKRKFNPYT | –
6 | binds | binds | – | Rps5 (protein, UniProt P26783 1-225) MSDTEAPVEVQEDFEVVEEFTPVVLATPIPEEVQQAQTEIKLFNKWSFEEVEVKDASLVDYVQVRQPIFVAHTAGRYANKRFRKAQCPIIERLTNSLMMNGRNNGKKLKAVRIIKHTLDIINVLTDQNPIQVVVDAITNTGPREDTTRVGGGGAARRQAVDVSPLRRVNQAIALLTIGAREAAFRNIKTIAETLAEELINAAKGSSTSYAIKKKDELERVAKSNR | –
